{"source": "PubChem BioAssay AID686943 (Drosophila RNAi Screening Center, 2013)", "aim": "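Search across the genome for regulators of signalling from receptor tyrosine kinase to ERK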 (primary screen)", "cells": "Drosophila S2R+ haemocyte-like cells expressing YFP-tagged ERK (Rolled)", "knock-down reagent": "long dsRNA against Drosophila genes", "conditions": "insulin stimulation versus unstimulated cells; dose and duration not given", "measurement": "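Antibody staining for doubly phosphorylated ERK divided by ERK-YFP signal, as plate z-scores, in insulin-treated and untreated cells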", "scale": "replicate 1, z-score of dpERK with insulin and replicate 2, z-score of dpERK with insulin: higher = more active ERK per ERK-YFP after insulin", "note": "In all, the deposit lists about 23,000 reagents; this is an unselected part of those that have a named target and a result. 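Extra replicates exist only for a retested subset of genes; insulin dose and duration not given; both raised and lowered dpERK matter.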 Further read-outs or replicates are left out here. No sequences are given here. Not stated in the record: the amount of reagent, the time to read-out."}
{"target gene":"CG5070","amplicon":"DRSC19932","replicate 1, z-score of dpERK with insulin":0.44,"replicate 2, z-score of dpERK with insulin":-0.18}
{"target gene":"CG15177","amplicon":"DRSC12557","replicate 1, z-score of dpERK with insulin":-0.52,"replicate 2, z-score of dpERK with insulin":-0.07}
{"target gene":"CG33062","amplicon":"DRSC22195","replicate 1, z-score of dpERK with insulin":-0.1,"replicate 2, z-score of dpERK with insulin":-0.25}
{"target gene":"CG4763","amplicon":"DRSC04009","replicate 1, z-score of dpERK with insulin":-0.1,"replicate 2, z-score of dpERK with insulin":-0.73}
{"target gene":"CG4763","amplicon":"DRSC04487","replicate 1, z-score of dpERK with insulin":0.81,"replicate 2, z-score of dpERK with insulin":-0.27}
{"target gene":"CG10663","amplicon":"DRSC09770","replicate 1, z-score of dpERK with insulin":-0.7,"replicate 2, z-score of dpERK with insulin":-0.27}
{"target gene":"CG13323","amplicon":"DRSC06360","replicate 1, z-score of dpERK with insulin":-0.4,"replicate 2, z-score of dpERK with insulin":0.56}
{"target gene":"CG7747","amplicon":"DRSC07038","replicate 1, z-score of dpERK with insulin":0.31,"replicate 2, z-score of dpERK with insulin":0.18}
{"target gene":"CG7530","amplicon":"DRSC16255","replicate 1, z-score of dpERK with insulin":0.08,"replicate 2, z-score of dpERK with insulin":-0.05}
{"target gene":"Spn55B","amplicon":"DRSC07694","replicate 1, z-score of dpERK with insulin":-0.41,"replicate 2, z-score of dpERK with insulin":0.3}
{"target gene":"Spn55B","amplicon":"DRSC21862","replicate 1, z-score of dpERK with insulin":0.46,"replicate 2, z-score of dpERK with insulin":-3.28}
{"target gene":"dia","amplicon":"DRSC03519","replicate 1, z-score of dpERK with insulin":-0.51,"replicate 2, z-score of dpERK with insulin":0.46}
{"target gene":"Ir8a","amplicon":"DRSC17817","replicate 1, z-score of dpERK with insulin":-0.42,"replicate 2, z-score of dpERK with insulin":-0.06}
{"target gene":"Ir8a","amplicon":"DRSC17869","replicate 1, z-score of dpERK with insulin":-0.03,"replicate 2, z-score of dpERK with insulin":0.82}
{"target gene":"PhKgamma","amplicon":"DRSC20268","replicate 1, z-score of dpERK with insulin":0.33,"replicate 2, z-score of dpERK with insulin":0.52}
{"target gene":"CG42710","amplicon":"DRSC01034","replicate 1, z-score of dpERK with insulin":-0.4,"replicate 2, z-score of dpERK with insulin":-0.4}
{"target gene":"CG17187","amplicon":"DRSC15181","replicate 1, z-score of dpERK with insulin":0.3,"replicate 2, z-score of dpERK with insulin":0.18}
{"target gene":"Ac78C","amplicon":"DRSC11467","replicate 1, z-score of dpERK with insulin":-0.11,"replicate 2, z-score of dpERK with insulin":0.77}
{"target gene":"Ac78C","amplicon":"DRSC11602","replicate 1, z-score of dpERK with insulin":-0.61,"replicate 2, z-score of dpERK with insulin":1.06}
{"target gene":"Ac78C","amplicon":"DRSC11619","replicate 1, z-score of dpERK with insulin":0.86,"replicate 2, z-score of dpERK with insulin":0.42}
{"target gene":"CG6749","amplicon":"DRSC10704","replicate 1, z-score of dpERK with insulin":-0.36,"replicate 2, z-score of dpERK with insulin":-0.08}
{"target gene":"Rlb1","amplicon":"DRSC16826","replicate 1, z-score of dpERK with insulin":0.4,"replicate 2, z-score of dpERK with insulin":0.07}
{"target gene":"tkv","amplicon":"DRSC00860","replicate 1, z-score of dpERK with insulin":0.58,"replicate 2, z-score of dpERK with insulin":0.13}
{"target gene":"tkv","amplicon":"DRSC03623","replicate 1, z-score of dpERK with insulin":0.53,"replicate 2, z-score of dpERK with insulin":0.39}
{"target gene":"tkv","amplicon":"DRSC22606","replicate 1, z-score of dpERK with insulin":0.57,"replicate 2, z-score of dpERK with insulin":0.32}
{"target gene":"scw","amplicon":"DRSC01711","replicate 1, z-score of dpERK with insulin":-0.49,"replicate 2, z-score of dpERK with insulin":-0.78}
{"target gene":"scw","amplicon":"DRSC21252","replicate 1, z-score of dpERK with insulin":0.3,"replicate 2, z-score of dpERK with insulin":0.53}
{"target gene":"CG9029","amplicon":"DRSC03129","replicate 1, z-score of dpERK with insulin":-0.08,"replicate 2, z-score of dpERK with insulin":0.45}
{"target gene":"CG30284","amplicon":"DRSC22150","replicate 1, z-score of dpERK with insulin":0.07,"replicate 2, z-score of dpERK with insulin":-0.6}
{"target gene":"CG15124","amplicon":"DRSC06546","replicate 1, z-score of dpERK with insulin":0.08,"replicate 2, z-score of dpERK with insulin":-0.26}
{"target gene":"CG14137","amplicon":"DRSC10142","replicate 1, z-score of dpERK with insulin":0.6,"replicate 2, z-score of dpERK with insulin":1.68}

Ordered by “replicate 1, z-score of dpERK with insulin” (low to high): some entries from above.
{"target gene":"CG7530","amplicon":"DRSC16255","replicate 1, z-score of dpERK with insulin":0.08,"replicate 2, z-score of dpERK with insulin":-0.05}
{"target gene":"CG7747","amplicon":"DRSC07038","replicate 1, z-score of dpERK with insulin":0.31,"replicate 2, z-score of dpERK with insulin":0.18}
